The test has as its target β-arrestin2 (bait of the immunoprecipitation for mass spectrometry) (UniProt Q91YI4). Briefly: affinity purification with mass spectrometry; immunoprecipitation with anti-β-arrestin2 antibody, FASP digestion, label-free mass spectrometry (Q Exactive, MaxQuant); source of the sample not stated.

Chains of the proteins cited; added tags and fusions are not shown.
UniProt Q91YI4: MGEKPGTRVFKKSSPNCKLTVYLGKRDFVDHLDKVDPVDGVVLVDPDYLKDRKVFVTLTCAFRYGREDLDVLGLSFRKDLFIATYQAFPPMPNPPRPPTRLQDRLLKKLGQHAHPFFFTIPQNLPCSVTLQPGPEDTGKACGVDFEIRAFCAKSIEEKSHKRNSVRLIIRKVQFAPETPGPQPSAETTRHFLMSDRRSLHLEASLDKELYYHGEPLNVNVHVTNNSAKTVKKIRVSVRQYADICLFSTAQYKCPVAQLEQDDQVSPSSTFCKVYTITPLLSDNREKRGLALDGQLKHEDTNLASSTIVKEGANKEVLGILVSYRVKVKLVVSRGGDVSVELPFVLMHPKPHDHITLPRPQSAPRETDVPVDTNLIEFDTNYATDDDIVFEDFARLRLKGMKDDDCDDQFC
UniProt P42227: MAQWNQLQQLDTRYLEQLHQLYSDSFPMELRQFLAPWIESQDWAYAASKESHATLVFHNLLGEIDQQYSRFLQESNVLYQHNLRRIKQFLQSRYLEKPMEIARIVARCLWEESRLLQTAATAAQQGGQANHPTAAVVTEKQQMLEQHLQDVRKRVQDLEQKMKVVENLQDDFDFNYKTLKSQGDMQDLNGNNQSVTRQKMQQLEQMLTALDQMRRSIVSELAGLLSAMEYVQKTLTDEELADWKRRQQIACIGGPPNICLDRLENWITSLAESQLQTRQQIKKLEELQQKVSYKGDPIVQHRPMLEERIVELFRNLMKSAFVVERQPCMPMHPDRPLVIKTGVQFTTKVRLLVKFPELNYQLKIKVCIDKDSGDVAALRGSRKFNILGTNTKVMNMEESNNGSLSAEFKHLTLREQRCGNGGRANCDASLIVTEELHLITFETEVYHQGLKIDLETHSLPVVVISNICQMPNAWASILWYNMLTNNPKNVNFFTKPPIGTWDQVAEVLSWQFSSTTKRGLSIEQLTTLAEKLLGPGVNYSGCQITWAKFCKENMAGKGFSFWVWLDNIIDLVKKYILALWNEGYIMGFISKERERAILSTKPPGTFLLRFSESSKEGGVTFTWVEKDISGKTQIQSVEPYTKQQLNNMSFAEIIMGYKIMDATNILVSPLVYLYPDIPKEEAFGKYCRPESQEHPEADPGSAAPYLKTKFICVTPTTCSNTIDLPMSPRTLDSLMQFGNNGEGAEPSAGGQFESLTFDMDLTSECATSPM

Results are given in words; binding and its absence hold for the method and conditions named. In cells and extracts the contact can be indirect. A yes stands for co-enrichment or nearness to the bait. Other partners may have been found.

As to “STAT3 (found in the β-arrestin2 immunoprecipitate by mass spectrometry) (from UniProt P42227 1-770)”, the binding entry is given as “binds”.

Values taken from paper PMC9526944.
